Experimental data as given in publication PMC4413655.
Results are given in words; binding and its absence hold for the method and conditions named. In cells and extracts the contact can be indirect. Some binding calls cover weakened binding; strength is not graded here. For part of these data: Sequences can lack the tags named with a protein. Values belong to the molecule of their own block, whether it stands above or below them.

Chains of the proteins cited; added tags and fusions are not shown.
UniProt P42224: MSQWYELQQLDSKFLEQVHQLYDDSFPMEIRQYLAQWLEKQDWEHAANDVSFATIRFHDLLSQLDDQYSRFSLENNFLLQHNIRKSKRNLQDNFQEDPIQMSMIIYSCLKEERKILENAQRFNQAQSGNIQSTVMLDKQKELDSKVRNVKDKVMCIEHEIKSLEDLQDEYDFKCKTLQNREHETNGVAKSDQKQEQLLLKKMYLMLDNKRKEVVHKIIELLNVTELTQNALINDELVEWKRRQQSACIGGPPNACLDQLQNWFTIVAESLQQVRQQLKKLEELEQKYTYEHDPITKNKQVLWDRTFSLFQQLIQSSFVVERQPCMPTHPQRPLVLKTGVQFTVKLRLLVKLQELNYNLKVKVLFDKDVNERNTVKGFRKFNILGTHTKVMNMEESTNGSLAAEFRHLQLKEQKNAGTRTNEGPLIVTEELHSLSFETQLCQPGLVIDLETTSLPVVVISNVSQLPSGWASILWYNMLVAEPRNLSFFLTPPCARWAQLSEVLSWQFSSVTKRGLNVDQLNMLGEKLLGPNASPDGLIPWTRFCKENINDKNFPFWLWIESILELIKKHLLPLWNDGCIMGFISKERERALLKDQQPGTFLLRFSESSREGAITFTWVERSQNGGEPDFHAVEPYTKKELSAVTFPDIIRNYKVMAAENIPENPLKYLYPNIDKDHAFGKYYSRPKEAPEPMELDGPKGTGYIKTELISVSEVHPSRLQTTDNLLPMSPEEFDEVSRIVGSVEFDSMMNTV

Experiments:
[1] = target: T1, IFIT3-STrEP-tag fusion protein (IFN-induced protein with tetratricopeptide repeats 3 fused at its C-end to the One-STrEP Tag) (human) (UniProt O14879); assay: pull-down; One-STrEP affinity chromatography: lysate of L3.6pl cells transfected with pEXPR-IFIT3 bound on affinity columns, extensively washed, eluted with biotin buffer; fractions analysed by Western blot; empty-vector lysate as negative control
T1 sequence: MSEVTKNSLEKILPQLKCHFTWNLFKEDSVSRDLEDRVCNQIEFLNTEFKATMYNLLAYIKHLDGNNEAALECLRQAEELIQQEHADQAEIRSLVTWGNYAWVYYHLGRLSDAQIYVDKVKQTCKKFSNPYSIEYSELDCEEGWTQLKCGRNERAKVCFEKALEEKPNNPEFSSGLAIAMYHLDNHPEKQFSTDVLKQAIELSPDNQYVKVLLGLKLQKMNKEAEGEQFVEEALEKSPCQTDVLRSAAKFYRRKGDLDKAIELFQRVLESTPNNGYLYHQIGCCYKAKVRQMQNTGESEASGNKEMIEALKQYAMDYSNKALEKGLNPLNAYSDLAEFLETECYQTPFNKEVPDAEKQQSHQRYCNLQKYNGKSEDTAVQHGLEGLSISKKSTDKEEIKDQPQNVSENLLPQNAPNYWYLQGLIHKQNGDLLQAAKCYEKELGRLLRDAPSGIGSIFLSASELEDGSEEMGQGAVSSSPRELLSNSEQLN

[2] = target: Signal Transducers and Activators of Transcription 1 (STAT1) (human (endogenous in L3.6pl)) (UniProt P42224); assay: co-IP; immunoprecipitation with anti-JNK and anti-STAT1 antibodies from L3.6pl lysate, Western blot with anti-IFIT3 antibody

binding [1]: no binding
Molecule: EGFR (from UniProt P00533 25-1210) (receptor)

binding [1]: binds
Molecule: Signal Transducers and Activators of Transcription 1 (STAT1) (from UniProt P42224 1-750)

binding [2]: binds
B1: IFN-induced protein with tetratricopeptide repeats 3 (IFIT3) (protein, UniProt O14879 1-490)
chain: T1 sequence
